The supplement of paper PMC10727501
The other results are listed elsewhere or left out. This data set is noisy: repeats of one test often differ as much as different tests do.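 Free-swimming zebrafish larvae were assessed for O-bend response probability to dark flashes (naive: first five; training: remaining flashes across four 60-flash blocks; test: later 60-flash block) and for OMR turning toward alternating leftward/rightward LED motion. Six treated larvae were compared against sixty 0.1% DMSO controls; hits required |SSMD|≥2.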

What was measured:
Settings in all cases: 10 µM; pre-incubation: 30-90 min
[1] = system: Danio rerio larvae (5 dpf, TLF); experiment: OMR-Perf (SSMD vs DMSO vehicle); higher = higher than vehicle (e.g. higher dark-flash O-bend response probability, or better optomotor performance)
[2] = system: Danio rerio larvae (5 dpf, TLF); experiment: Prob-Test (SSMD vs DMSO vehicle); higher = higher than vehicle (e.g. higher dark-flash O-bend response probability, or better optomotor performance)
[3] = system: Danio rerio larvae (5 dpf, TLF); experiment: Prob-Naive (SSMD vs DMSO vehicle); higher = higher than vehicle (e.g. higher dark-flash O-bend response probability, or better optomotor performance)
[4] = system: Danio rerio larvae (5 dpf, TLF); experiment: Prob-Train (SSMD vs DMSO vehicle); higher = higher than vehicle (e.g. higher dark-flash O-bend response probability, or better optomotor performance)

| Structure (SMILES) | OMR-Perf [1] | Prob-Test [2] | Prob-Naive [3] | Prob-Train [4] |
| --- | --- | --- | --- | --- |
| C[C@]12CC[C@H]3c4ccc(O)cc4CC[C@H]3[C@@H]1CCC2=O [Estrone] | -0.877 | -0.209 | -0.458 | -0.688 |
| O=C(NCCO[N+](=O)[O-])c1cccnc1 [Nicorandil] | -0.0137 | 0.00705 | 0.536 | 0.477 |
| CCOC(=O)[C@H](CCc1ccccc1)N[C@@H](C)C(=O)N1[C@@H](C(=O)O)C[C@@H]2CCC[C@@H]21 [Ramipril] | 0.173 | 0.527 | 0.147 | 0.251 |
| Cc1onc(-c2ccccc2Cl)c1C(=O)N[C@@H]1C(=O)N2[C@@H](C(=O)[O-])C(C)(C)S[C@@H]12.O.[Na+] [Cloxacillin Sodium] | 0.954 | 0.955 | 0.204 | 1.35 |
| CN(C)Cc1c(C(=O)NCCOc2ccc(C(=O)NO)cc2)oc2ccccc12 | -0.177 | 0.05 | 0.0243 | 0.28 |
| O=C1Nc2ccc(I)cc2/C1=C\c1cc(Br)c(O)c(Br)c1 | -0.673 | -0.211 | 0.0876 | -0.0364 |
| CN[C@H](CC(=O)O)C(=O)O [NMDA (N-Methyl-D-aspartic acid)] | -0.475 | -0.0621 | 0.42 | -0.169 |
| C[C@@H](c1ncncc1F)[C@](O)(Cn1cncn1)c1ccc(F)cc1F [Voriconazole] | 0.455 | -0.0471 | -0.391 | -0.00902 |
| CC#CCn1c(N2CCC[C@@H](N)C2)nc2c1c(=O)n(Cc1nc(C)c3ccccc3n1)c(=O)n2C [Linagliptin] | 0.322 | -0.158 | 0.0934 | -0.468 |
| COC(=O)Nc1nc2ccc(Sc3ccccc3)cc2[nH]1 [Fenbendazole] | -0.728 | -0.678 | -0.315 | 0.00741 |
| Cc1[nH]c(/C=C2/C(=O)Nc3ccc(S(=O)(=O)N(C)c4cccc(Cl)c4)cc32)c(C)c1C(=O)N1CCN(C)CC1 | 0.658 | -0.219 | -0.0643 | -0.558 |
| Cc1cc(-c2ncc(CC(=O)Nc3ccc(-c4cnccn4)cn3)cc2C)ccn1 | -0.072 | -0.00317 | -0.0179 | -0.586 |
| CNS(=O)(=O)Cc1ccc2[nH]cc(CCN(C)C)c2c1.O=C(O)CCC(=O)O [Sumatriptan Succinate] | 0.0155 | 0.687 | -0.146 | 0.436 |
| CC(=O)Oc1ccc(C(c2ccc(OC(C)=O)cc2)c2ccccn2)cc1 [Bisacodyl] | -0.0684 | 0.687 | -0.545 | -0.304 |
| Cl.NC12CC3CC(CC(C3)C1)C2 [Amantadine HCl] | 0.166 | -0.215 | -0.296 | -0.195 |
| Nc1nc(N)c2nc(-c3cccc(O)c3)cnc2n1 | 0.172 | -0.288 | -0.137 | -0.132 |
| CN(C)CCc1c[nH]c2ccc(C[C@H]3COC(=O)N3)cc12 [Zolmitriptan] | -0.431 | -0.433 | -0.307 | -0.386 |
| COc1ccccc1OCCNCC(O)COc1cccc2[nH]c3ccccc3c12 (stereo not given) [Carvedilol] | -1.16 | -1.05 | 0.0449 | -1.12 |
| O=C1CCc2ccc(OCCCCN3CCN(c4cccc(Cl)c4Cl)CC3)cc2N1 [Aripiprazole] | -0.24 | 0.423 | 0.273 | 0.298 |
| CCNC1=N[C@@H]2[C@@H](O)[C@H](O)[C@@H](CO)O[C@@H]2S1 [Thiamet G] | 0.177 | -0.383 | 0.312 | -0.0205 |
| CC(=O)[N-]S(=O)(=O)c1ccc(N)cc1.[Na+] [Sulfacetamide Sodium] | -0.344 | 0.3 | 0.232 | -0.00636 |
| CNC(=O)c1ccc(C)c(-n2c(C)cc(OCc3ccc(F)cc3F)c(Br)c2=O)c1 | -0.224 | -0.453 | 0.285 | -0.227 |
| NC[C@@H]1O[C@H](O[C@H]2[C@H](O)C(O[C@H]3[C@@H](O)[C@H](N)C[C@H](N)[C@H]3O[C@H]3O[C@@H](CN)[C@@H](O)[C@H](O)[C@H]3N)O[C@@H]2CO)[C@@H](N)[C@@H](O)[C@@H]1O.O=S(=O)(O)O (stereo not given in full) [Neomycin sulfate] | -0.118 | 0.405 | -0.187 | 0.478 |
| CC(=O)N[C@@H](CS)C(=O)O [Acetylcysteine] | -0.248 | -1.27 | 0.471 | -0.893 |
| C[C@H](CS)C(=O)N1CCC[C@@H]1C(=O)O [Captopril] | 0.137 | -0.198 | -0.423 | -0.458 |
| Nc1ncnc2n[nH]c(Nc3ccc(F)cc3)c12 | -0.128 | 0.0829 | -0.0588 | 0.429 |
| O=C1c2c(O)cc(O)cc2O[C@H](c2ccc(O)c(O)c2)[C@H]1O [Taxifolin (Dihydroquercetin)] | -0.236 | -0.506 | -0.311 | -0.195 |
| COc1ccc2c(c1)C(=O)N(CCc1ccc(S(=O)(=O)NC(=O)NC3CCCCC3)cc1)C(=O)C2(C)C [Gliquidone] | -0.14 | -0.369 | -0.169 | -1.04 |

Whole records as entered above. Order of values: OMR-Perf [1] | Prob-Test [2] | Prob-Naive [3] | Prob-Train [4]
C[C@]12CC[C@H]3c4ccc(O)cc4CC[C@H]3[C@@H]1CCC2=O [Estrone] is listed as -0.877 | -0.209 | -0.458 | -0.688
CC#CCn1c(N2CCC[C@@H](N)C2)nc2c1c(=O)n(Cc1nc(C)c3ccccc3n1)c(=O)n2C [Linagliptin] is listed as 0.322 | -0.158 | 0.0934 | -0.468
O=C1CCc2ccc(OCCCCN3CCN(c4cccc(Cl)c4Cl)CC3)cc2N1 [Aripiprazole] is listed as -0.24 | 0.423 | 0.273 | 0.298
Cc1cc(-c2ncc(CC(=O)Nc3ccc(-c4cnccn4)cn3)cc2C)ccn1 is listed as -0.072 | -0.00317 | -0.0179 | -0.586

Continuation.

| Structure (SMILES) | OMR-Perf [1] | Prob-Test [2] | Prob-Naive [3] | Prob-Train [4] |
| --- | --- | --- | --- | --- |
| CC1Cc2ccccc2N1NC(=O)c1ccc(Cl)c(S(N)(=O)=O)c1 (stereo not given) [Indapamide] | 0.334 | -0.0906 | -0.0365 | 0.167 |
| C=CC(=O)Nc1cccc(Sc2nc(Nc3ccc(N4CCN(C)CC4)cc3)ncc2Cl)c1 | -0.0495 | -0.408 | -0.043 | -0.195 |
| CCN1/C(=C/C(C)=O)Sc2ccc(OC)cc21 | 0.212 | 0.308 | 0.135 | 0.235 |
| O=C1c2ccccc2-c2n[nH]c3cccc1c23 | 0.658 | -1.49 | -5.13 | -2.35 |
| O=C(O)C1=CC(O)C(O)[C@H](O)C1 (stereo not given in full) [Shikimic Acid] | 0.0675 | -0.167 | -0.283 | 0.107 |
| CCCS(=O)c1ccc2nc(NC(=O)OC)[nH]c2c1 (stereo not given) [Albendazole Oxide] | -0.271 | 0.966 | 0.184 | -0.0873 |
| Nc1nc(=S)c2[nH]cnc2[nH]1 [Thioguanine] | 0.299 | -0.243 | 0.421 | 0.27 |
| CN1CC[C@@H](c2c(O)cc(O)c3c(=O)cc(-c4ccccc4Cl)oc23)[C@@H]1CO.Cl | -0.115 | -0.077 | 0.227 | -0.472 |
| Cn1nc(C(C)(C)C)cc1C(=O)N[C@@H](Cc1cccc(Cl)c1)C(=O)NCC#N [Cathepsin Inhibitor 1] | -0.242 | 0.203 | 0.176 | 0.0222 |
| NC[C@H]1CC[C@@H](C(=O)O)CC1 [Tranexamic Acid] | 0.0904 | -0.366 | 0.471 | -0.362 |
| Oc1nc(-c2ccc(C(F)(F)F)cc2)nc2c1CSCC2 | 0.2 | -0.609 | -1.1 | -0.988 |
| CC(=O)Oc1cccc2c1C(=O)c1c(OC(C)=O)cc(C(=O)O)cc1C2=O [Diacerein] | -0.944 | -0.38 | -0.119 | -0.434 |
| N#CCNC(=O)c1ccc(-c2ccnc(Nc3ccc(N4CCOCC4)cc3)n2)cc1 | 0.575 | 0.217 | -0.234 | -0.32 |
| Cc1ccccc1N1C(=O)c2cc(S(N)(=O)=O)c(Cl)cc2NC1C (stereo not given) [Metolazone] | -0.329 | 0.0454 | 0.184 | 0.0982 |
| CCc1c2c(nc3ccc(O)cc13)-c1cc3c(c(=O)n1C2)COC(=O)[C@]3(O)CC | -0.622 | 0.386 | 0.0292 | -0.0267 |
| O=C(CCCCCN1C(=O)c2cccc3cccc(c23)C1=O)NO [Scriptaid] | 0.277 | 0.581 | 0.245 | 0.354 |
| O=C(/C=C/c1ccc(O)c(O)c1)c1ccc(O)cc1O [Butein] | 0.116 | -0.107 | -0.577 | -0.559 |
| CN(C)CC(=O)Nc1ccc2[nH]c(=O)c3ccccc3c2c1 | -0.634 | -0.742 | -0.0813 | -0.897 |
| CCCC(CCC)C(=O)O.CCCC(CCC)C(=O)[O-].[Na+] [Divalproex Sodium] | 0.181 | 0.228 | -0.364 | -0.311 |
| CC(C(=O)O)c1ccc2c(c1)CC(=O)c1ccccc1S2 (stereo not given) [Zaltoprofen] | 0.00084 | -0.0198 | 0.421 | -0.209 |
| COc1ccc(C2CNC(=O)C2)cc1OC1CCCC1 (stereo not given) [Rolipram] | -0.18 | 0.42 | -1.01 | -0.397 |
| CS(=O)(=O)O.OC(CCN1CCCCC1)(c1ccccc1)c1ccccc1 [Pridinol Methanesulfonate] | -0.828 | -0.547 | -0.119 | -0.345 |
| C[C@H](Nc1ncnc2[nH]cnc12)c1cc2cccc(Cl)c2c(=O)n1-c1ccccc1 | -0.106 | -0.128 | 0.538 | 0.248 |
| NCCc1c[nH]cn1.O=P(=O)OO.O=P(=O)OO.[HH].[HH] [Histamine Phosphate] | -0.316 | 0.447 | 0.0912 | 0.378 |
| CC(C)(O)[C@H]1CC[C@@](C)([C@@H]2[C@@H](O)C[C@@]3(C)[C@@H]4C[C@H](O[C@@H]5O[C@H](CO)[C@@H](O)[C@H](O)[C@@H]5O)[C@H]5C(C)(C)[C@@H](O[C@@H]6OC[C@@H](O)[C@H](O)[C@H]6O)CC[C@@]56C[C@]46CC[C@]23C)O1 [Astragaloside A] | -0.851 | -0.377 | 0.173 | -0.136 |
| COc1ccccc1OCC(O)CN1CCN(CC(=O)Nc2c(C)cccc2C)CC1.Cl.Cl (stereo not given) [Ranolazine 2HCl] | 0.104 | -0.07 | 0.42 | 0.39 |
| COc1cc(C(C)=O)ccc1O [Apocynin] | 0.497 | -0.0981 | -0.265 | -0.428 |
